We go through two molecules from publication PMC4701444 (PLoS ONE, 2016).

Experiment [1] addresses PfAMA1 (DI-DII of Plasmodium falciparum Apical Membrane Antigen 1, 3D7, residues 104-438) (Plasmodium falciparum) (UniProt Q7KQK5). Put plainly: ITC; 25°C, MicroCal iTC200; cell: PfAMA1 or ΔDII-PfAMA1 (10 μM); syringe: PfRON2D3-TRX (110 μM), 17 injections of 2.2 μL; 20 mM Hepes pH 7.5, 150 mM NaCl; one binding site model; both purified. In general terms: Isothermal titration calorimetry measures the heat released or taken up as one component is titrated into another.

Experiment [2] has the same target. In words: fluorescence polarisation; anisotropy kinetics at 30°C; association: 10 nM labeled probe with 50, 100, 200 nM protein; dissociation: 10 nM preformed complex challenged with 2500 or 5000 nM unlabeled PfRON2sp1; global fit to a one-intermediate model; PBS pH 7.4, at least 0.1% BSA; both purified. Background: In fluorescence polarisation assays a small probe gives low polarisation when free and higher when bound to something large.

The target is the same in experiment [3]. In words: fluorescence polarisation; anisotropy kinetics at 25°C; association: 10 nM labeled probe with 50, 100, 200 nM protein; dissociation: 10 nM preformed complex challenged with 2500 or 5000 nM unlabeled PfRON2sp1; global fit to a one-intermediate model; PBS pH 7.4, at least 0.1% BSA; both purified.
Experiment [4] has the same target. Put plainly: fluorescence polarisation; anisotropy kinetics at 20°C; association: 10 nM labeled probe with 50, 100, 200 nM protein; dissociation: 10 nM preformed complex challenged with 2500 or 5000 nM unlabeled PfRON2sp1; global fit to a one-intermediate model; PBS pH 7.4, at least 0.1% BSA; both purified.

These are yes or no findings as the source states them, for the method shown. Some results given as binding are weak or reduced against the parent protein; the word gives no strength.

“TRX (thioredoxin alone, negative control) (from UniProt P0AA25 1-109)”: the binding entry in experiment [1] was “no binding”.

B1: PfRON2sp1 (39 aa) [2021-2059], unlabeled peptide (peptide)
peptide: DITQQAKDIGAGPVASCFTTRMSPPQQICLNSVVNTALS
modifications: disulfide cyclized at the two cysteine residues
Regarding B1, the binding entry in experiment [2], in experiment [3] and in experiment [4] was “binds” throughout.
